Laboratory results as given in patent US20120301394A1 (published 2012).
No constants are given. Whether binding was seen depends on the method and setting. Some entries that bind do so weakly or less than the wild type.

Target: T1, Recombinant human MMR (R&D systems) (human, UniProt P22897 19-1383)
T1 construct: Bought protein (R&D Systems #2534) coated on ELISA plates; also called hMMR; MRC1
T1 sequence: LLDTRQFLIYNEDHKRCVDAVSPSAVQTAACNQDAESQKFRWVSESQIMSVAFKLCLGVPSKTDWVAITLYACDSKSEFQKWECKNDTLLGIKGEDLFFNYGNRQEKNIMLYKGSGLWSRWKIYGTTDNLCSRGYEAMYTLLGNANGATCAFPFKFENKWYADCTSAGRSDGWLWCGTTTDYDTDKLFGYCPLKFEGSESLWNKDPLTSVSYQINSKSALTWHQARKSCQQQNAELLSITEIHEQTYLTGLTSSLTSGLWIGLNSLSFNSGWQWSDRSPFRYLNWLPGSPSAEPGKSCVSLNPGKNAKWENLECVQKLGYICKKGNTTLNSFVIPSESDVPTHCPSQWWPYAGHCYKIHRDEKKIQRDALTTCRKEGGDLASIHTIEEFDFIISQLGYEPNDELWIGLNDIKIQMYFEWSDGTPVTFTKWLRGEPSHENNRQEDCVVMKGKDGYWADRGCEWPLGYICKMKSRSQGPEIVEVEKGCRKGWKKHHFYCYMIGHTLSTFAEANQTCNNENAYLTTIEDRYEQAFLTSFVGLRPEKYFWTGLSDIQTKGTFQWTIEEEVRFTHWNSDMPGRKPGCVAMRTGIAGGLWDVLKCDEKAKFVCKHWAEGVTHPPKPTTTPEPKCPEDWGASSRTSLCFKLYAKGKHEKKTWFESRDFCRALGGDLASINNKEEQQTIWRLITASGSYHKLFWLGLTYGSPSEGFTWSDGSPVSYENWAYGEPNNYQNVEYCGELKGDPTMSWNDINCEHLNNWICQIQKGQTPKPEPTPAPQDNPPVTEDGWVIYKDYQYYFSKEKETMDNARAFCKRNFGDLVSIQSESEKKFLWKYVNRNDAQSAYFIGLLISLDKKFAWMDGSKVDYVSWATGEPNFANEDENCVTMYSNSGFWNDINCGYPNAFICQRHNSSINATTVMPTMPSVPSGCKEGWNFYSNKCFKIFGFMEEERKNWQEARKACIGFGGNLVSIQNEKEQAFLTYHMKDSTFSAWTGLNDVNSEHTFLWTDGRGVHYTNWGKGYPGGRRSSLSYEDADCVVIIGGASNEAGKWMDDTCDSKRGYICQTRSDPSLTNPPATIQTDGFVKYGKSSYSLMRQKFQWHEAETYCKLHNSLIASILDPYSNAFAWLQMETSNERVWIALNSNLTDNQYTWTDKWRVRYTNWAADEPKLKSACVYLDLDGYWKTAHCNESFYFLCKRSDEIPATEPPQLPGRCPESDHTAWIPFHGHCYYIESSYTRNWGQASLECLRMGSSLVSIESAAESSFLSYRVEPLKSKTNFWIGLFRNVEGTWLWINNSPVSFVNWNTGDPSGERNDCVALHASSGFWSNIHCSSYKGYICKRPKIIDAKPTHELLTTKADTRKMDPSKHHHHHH
Assay: PE-ELISA, periplasmic extract on coated human MMR

B1: NbhmMMRm21.22 (VHH)
VHH: QVQLQESGGGLVQAGGSLRLSCAASGRTFSSAAMGWFRQAPGKEREPVALINLDDGETYYADIAKGRFTLSKDNAKNSVYLQMNSLKPEDTAVYYCAVRGRFDDNYEYWGQGTQVTVSS
- binding: binds
